Test results as given in PubChem BioAssay (NCATS).
The other results are listed elsewhere or left out. Shown are side measurements of this screen, not its main read-out; they come without a call. Most of these compounds were active or inconclusive in the main read-out, so they are no random draw. Potencies come from curve fits of mixed quality, noted in brackets.

Assay: qHTS for identification of novel therapeutic agents for treatment of microphthalmiaassociated transcription factor (MiT) renal cell carcinoma (RCC) (AID 1963991)
Conditions: CellTiter-Glo, 48 h; for z-score: stronger effect = lower value
Outline: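 Curves over 11 concentrations were fitted to CellTiter-Glo luminescence, scaled between empty wells (0%) and DMSO (100%) viability. Cells were UOK109, UOK124 and UOK145 TFE3-fusion RCC lines at 500/well, exposed 48 hours at 37 C.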

[1] = TFE3-RCC UOK109 viability, measured here: UOK109 Z-AUC
[2] = TFE3-RCC viability, measured here: UOK124 Z-AUC
[3] = TFE3-RCC viability, measured here: UOK124 cell viability
[4] = TFE3-RCC viability, measured here: UOK145 Z-AUC
[5] = TFE3-RCC viability, measured here: UOK145 cell viability

Compound: NS(=O)(=O)OC[C@@H]1C[C@@H](n2ccc3c(N[C@H]4CCc5ccccc54)ncnc32)C[C@H]1O
- z-score [1]: -0.144
- z-score [2]: 0.377
- AC50 [3]: 3.72 µM [falling, full curve]
- z-score [4]: -1.08
- AC50 [5]: 2.96 µM [falling, full curve]

Compound: O=C(C=CC#Cc1cccc(NS(=O)(=O)c2ccccc2)c1)NO
- z-score [1]: -0.395
- z-score [2]: -2.68
- AC50 [3]: 6.62 µM [falling, full curve]
- z-score [4]: -0.452
- AC50 [5]: 13.2 µM [falling, partial curve]

Compound: CC(C)c1ccccc1Cc1cc(C(=O)Nc2ccc(S(=O)(=O)c3ccccc3C(C)(C)C)cc2)c(O)c(O)c1O
- z-score [1]: 0.0865
- z-score [2]: 0.00636
- AC50 [3]: 5.26 µM [falling, full curve]
- z-score [4]: -0.434
- AC50 [5]: 9.35 µM [falling, full curve]

Compound: CC[C@@]1([C@@H]2O[C@@H]([C@H]3O[C@@](O)(CO)[C@H](C)C[C@H]3C)C[C@H]2C)CC[C@H]([C@]2(C)CC[C@]3(C[C@H](O)[C@@H](C)[C@@H]([C@@H](C)[C@@H](OC)[C@H](C)C(=O)O)O3)O2)O1
- z-score [1]: 0.362
- z-score [2]: -0.718
- AC50 [3]: 0.645 µM [falling, full curve]
- z-score [4]: 0.372
- AC50 [5]: 0.257 µM [falling, full curve]

Compound: Cc1ccc2nc(NCCN)c3ncc(C)n3c2c1
- z-score [1]: -1.62
- z-score [2]: -0.442
- AC50 [3]: 18.7 µM [falling, partial curve]
- z-score [4]: -0.43
- AC50 [5]: 3.72 µM [falling, full curve]

Compound: O=c1[nH]c(=O)n([C@H]2C[C@@H](O)[C@@H](CO)O2)cc1F
- z-score [1]: -0.672
- z-score [2]: -0.149
- AC50 [3]: 5.9 µM [falling, partial curve]
- z-score [4]: -1.2
- AC50 [5]: 1.05 µM [falling, full curve]

Compound: CC1=C(CO)C(=O)O[C@@H]([C@@H](C)[C@H]2CC[C@H]3[C@@H]4C[C@H]5O[C@]56[C@@H](O)C=CC(=O)[C@]6(C)[C@@H]4CC[C@]23C)C1
- z-score [1]: -1.53
- z-score [2]: -0.534
- AC50 [3]: 29.6 µM [falling, single point]
- z-score [4]: -2.26
- AC50 [5]: 1.48 µM [falling, full curve]

Compound: CC(C)N(CCCNC(=O)Nc1ccc(C(C)(C)C)cc1)C[C@H]1O[C@@H](n2cc(Br)c3c(N)ncnc32)[C@H](O)[C@H]1O
- z-score [1]: 0.215
- z-score [2]: -0.135
- AC50 [3]: 16.6 µM [falling, partial curve]
- z-score [4]: -0.0539
- AC50 [5]: 18.7 µM [falling, partial curve]

Compound: Fc1cc(-c2cccc3ncc(-c4cnn(C5CCNCC5)c4)nc23)cc(F)c1CN1CCOCC1
- z-score [1]: 0.0251
- z-score [2]: -0.336
- AC50 [3]: 9.35 µM [falling, full curve]
- z-score [4]: 0.0908
- AC50 [5]: 20.9 µM [falling, partial curve]

Compound: COc1cc2nccc(Oc3ccc(NC(=O)NC4CC4)c(Cl)c3)c2cc1C(N)=O
- z-score [1]: -0.768
- z-score [2]: -0.723
- AC50 [3]: 1.87 µM [falling, full curve]
- z-score [4]: -0.805
- AC50 [5]: 1.18 µM [falling, full curve]

Compound: COc1cc(C(=O)NS(=O)(=O)c2ccccc2C)ccc1Cc1cn(C)c2ccc(NC(=O)OC3CCCC3)cc12
- z-score [1]: 0.136
- z-score [2]: -1.55
- AC50 [3]: 20.9 µM [falling, partial curve, poor fit]
- z-score [4]: -0.51
- AC50 [5]: 33.2 µM [falling, single point]

Compound: Oc1ccc(C=Cc2cc(O)cc(O)c2)cc1
- z-score [1]: 0.83
- z-score [2]: 0.142
- AC50 [3]: 33.2 µM [falling, single point]
- z-score [4]: 0.58
- AC50 [5]: 33.2 µM [falling, single point]

Compound: CNC(=O)c1cccc(-c2ccc3c(N4CCOC[C@H]4C)nc(N4CCOC[C@H]4C)nc3n2)c1
- z-score [1]: -1.07
- z-score [2]: -0.151
- AC50 [3]: 0.148 µM [falling, full curve]
- z-score [4]: -1.95
- AC50 [5]: 0.118 µM [falling, full curve]

Compound: CCC(=C(c1ccccc1)c1ccc(OCCN(C)C)cc1)c1ccccc1
- z-score [1]: 0.688
- z-score [2]: -0.516
- AC50 [3]: 23.5 µM [falling, partial curve]
- z-score [4]: 0.493
- AC50 [5]: 33.2 µM [falling, single point]

Compound: CC(C)n1c(C=C[C@H](O)C[C@H](O)CC(=O)O)c(-c2ccc(F)cc2)c2ccccc21
- z-score [1]: -0.288
- z-score [2]: -0.181
- AC50 [3]: 1.48 µM [falling, full curve]
- z-score [4]: 0.408
- AC50 [5]: 18.7 µM [falling, partial curve]
